1 molecule from patent US6379083B1, “Method for the remediation of soil contaminated with organic halide compounds” (Hazama Corporation, priority 1998, dated 2002) can be followed below.

The nature of the data set: Remediation action of carbonic acid aqueous solution on practical contaminated soil (Example 4). Conditions: well for observation.

Turning to `ClC=C(Cl)Cl` [trichloroethylene], the TCE concentration (December 2nd, Pouring of water and CO2) is listed as 0.53 mg/L; the TCE concentration (December 11th, Pouring of water and CO2) was 0.30 mg/L; the TCE concentration (December 19th, Pouring of water and CO2) is 0.22 mg/L; the TCE concentration (February 12th, Pouring of water and CO2 and termination) turned out to be 0.035 mg/L; the TCE concentration (January 5th, Pouring of water and CO2) was determined as 0.18 mg/L; the TCE concentration (January 20th, Pouring of water) was 0.057 mg/L. Also, the TCE concentration is, setting by setting: (November 2nd, Pouring of water) 0.037 mg/L; (November 5th, Pouring of water) 0.043 mg/L; (November 7th, Pouring of water) 0.054 mg/L; (November 13th, Pouring of water and CO2) 0.12 mg/L; (November 20th, Pouring of water and CO2) 0.36 mg/L; (November 26th, Pouring of water) 0.39 mg/L.
